Consider 3 molecules from article PMC9816059.

Assay [1] deals with T1, CST1-C truncation (amino acids 74-141), Myc-tagged (UniProt P01037).
T1 sequence: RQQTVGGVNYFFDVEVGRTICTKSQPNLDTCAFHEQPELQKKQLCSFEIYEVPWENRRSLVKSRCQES
Briefly: co-IP; HEK293T cells transfected with CST1-FL/N/C-Myc and OTUB1-Flag, GPX4-HA plasmids; Myc protein immunoprecipitated; Western blot, 15% SDS-PAGE. In general terms: Immunoblotting shows a protein as a band on a membrane.

The target in assay [2] is T2, Myc-tagged full-length CST1 (CST1-FL-Myc) (UniProt P01037).
T2 sequence: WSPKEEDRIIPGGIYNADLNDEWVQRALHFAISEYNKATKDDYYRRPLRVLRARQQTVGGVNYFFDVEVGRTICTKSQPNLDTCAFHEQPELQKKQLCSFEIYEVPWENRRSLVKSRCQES
The assay is described as above.

For another assay, the target named is HA-tagged GPX4. Briefly: co-IP; HEK293T cells transfected with HA-GPX4 and Flag-tagged OTUB1 or OTUD5, and/or Myc-tagged CST1; Western blot of Flag, HA and Myc after IP; precipitated protein not told.

No constants are given. Whether binding was seen depends on the method and setting. In cells and extracts the contact can be indirect. Binding calls can cover weak binding; strength is not graded here. Where a sequence is shown, tags or fusion partners need not be part of it.

On to HA-tagged GPX4 (enzyme), for which the binding entry in assay [1] and in assay [2] was “binds” in each case.

B1: Flag-tagged OTUD5 (enzyme, UniProt Q96G74 1-571)
chain: MTILPKKKPPPPDADPANEPPPPGPMPPAPRRGGGVGVGGGGTGVGGGDRDRDSGVVGARPRASPPPQGPLPGPPGALHRWALAVPPGAVAGPRPQQASPPPCGGPGGPGGGPGDALGAAAAGVGAAGVVVGVGGAVGVGGCCSGPGHSKRRRQAPGVGAVGGGSPEREEVGAGYNSEDEYEAAAARIEAMDPATVEQQEHWFEKALRDKKGFIIKQMKEDGACLFRAVADQVYGDQDMHEVVRKHCMDYLMKNADYFSNYVTEDFTTYINRKRKNNCHGNHIEMQAMAEMYNRPVEVYQYSTGTSAVEPINTFHGIHQNEDEPIRVSYHRNIHYNSVVNPNKATIGVGLGLPSFKPGFAEQSLMKNAIKTSEESWIEQQMLEDKKRATDWEATNEAIEEQVARESYLQWLRDQEKQARQVRGPSQPRKASATCSSATAAASSGLEEWTSRSPRQRSSASSPEHPELHAELGMKPPSPGTVLALAKPPSPCAPGTSSQFSAGADRATSPLVSLYPALECRALIQQMSPSAFGLNDWDDDEILASVLAVSQQEYLDSMKKNKVHRDPPPDKS
Turning to B1, in the assay with HA-tagged GPX4, the binding entry is “no binding”.

B2: Myc-tagged full-length CST1 (CST1-FL-Myc) (protein, UniProt P01037 21-141)
chain: T2 sequence
For B2, in the assay with HA-tagged GPX4, the binding entry was “binds”.
